{"source": "PubChem BioAssay AID493014", "about": "(National Center for Advancing Translational Sciences (NCATS), 2011)", "note": "Out of some 340,000 compounds screened, about 170 (0.05%) were called active. Inconclusive results, whose numbers are uncertain, are shown with a selection of clear calls. Calls follow the shape of the dose curve; as a rule, active = well fitted inhibition curve with a large enough effect in the signal ratio, with a control signal flat (not every such curve was filed as active); inconclusive = small, poorly fitted or top-dose-only effect, or effect the other way, or a change in a side signal; inactive = flat fitted curve, though single readings scatter; the % refers to the signal ratio. Potencies of inconclusive entries are doubtful fits and often do not repeat. Potency is read from the fitted curve at half-maximal effect."}
{"experiment": "qHTS Assay to Find Inhibitors of Chronic Active B-Cell Receptor Signaling;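 as to activity change, negative = inhibition: plate controls were basal doxycycline-induced cells for no effect and cells given 10 µM MG132 for full effect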", "settings": "ABC-DLBCL IkBa-CBG/CBR reporter, luminescence ratio (green luciferase fused to IkBa over red control in TMD8 lymphoma cells), 4 h; activity change, negative = inhibition: at 46.1 µM (top of the series)", "outline": "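Compounds up to 46 uM were incubated four hours with TMD8 cells whose green CBG68 luciferase is fused to IkappaBalpha; red CBR luminescence normalised the signal, and concentration-effect curves were fitted to fusion, red and ratio data.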"}
{"smiles": "COc1cccc(NC(=O)COC(=O)c2ccc(C)c(S(=O)(=O)N3CCCCC3)c2)c1", "activity change, negative = inhibition": "inconclusive: -13%"}
{"smiles": "CN1CCCC(CC2c3ccccc3Sc3ccccc32)C1", "note": "(configuration not stated)", "Potency": "inconclusive: 2.59 µM [falling, full curve, poor fit]"}
{"smiles": "OC1(C#CCN2CCCC2)c2ccccc2-c2ccccc21", "activity change, negative = inhibition": "inconclusive: 2.08%"}
{"smiles": "CCOc1ccc(CC(=O)NCc2ccc3c(c2)CCN3C(=O)c2ccc(F)cc2)cc1OCC", "activity change, negative = inhibition": "inactive"}
{"smiles": "O=Nc1c(O)[nH]c2ccc(Cl)cc12", "Potency": "inconclusive: 15.8 µM [falling, partial curve, poor fit]"}
{"smiles": "Brc1ccc(C2=CC(c3ccco3)n3nnnc3N2)cc1", "note": "(configuration not stated)", "activity change, negative = inhibition": "inconclusive: 14.6%"}
{"smiles": "O=C(O)c1ccccc1NS(=O)(=O)c1ccc(NN=Cc2cccc(Cl)c2)c([N+](=O)[O-])c1", "activity change, negative = inhibition": "inconclusive: 2.36%"}
{"smiles": "CCCOc1ccc(Cn2ccnc2)cc1[N+](=O)[O-]", "Potency": "inconclusive: 18.4 µM [falling, single point]"}
{"smiles": "COc1ccc(Nc2cc(C)nc(-n3nc(C)cc3C)n2)cc1", "Potency": "inconclusive: 2.59 µM [falling, full curve]"}
{"smiles": "CCOC(=O)c1c(C)[nH]c(C(=O)OCc2c(C)noc2C)c1C", "activity change, negative = inhibition": "inconclusive: -13.2%"}
{"smiles": "C=CCNC(=S)Nc1ccc2nc(C)oc2c1", "activity change, negative = inhibition": "inactive"}
{"smiles": "OC(COc1ccc(F)cc1Cl)CN1CCC(Cc2ccccc2)CC1", "note": "(configuration not stated)", "activity change, negative = inhibition": "inactive"}
{"smiles": "CCCCC(=O)Nc1nnc(-c2ccc(OC)cc2)s1", "activity change, negative = inhibition": "inconclusive: 10.6%"}
{"smiles": "Cc1ccccc1CN1C(=O)c2ccccc2Sc2ccc(C(=O)NCCCN3CCOCC3)cc21", "activity change, negative = inhibition": "inconclusive: 4.62%"}
{"smiles": "Cc1scc(C(=O)N/N=C/c2ccc(OC(C)C)cc2)c1C", "activity change, negative = inhibition": "inactive"}
{"smiles": "CC(C)(CO)CNC(=O)CCc1nnc(CCCc2ccccc2)o1", "activity change, negative = inhibition": "inconclusive: 4.01%"}
{"smiles": "COc1ccccc1CN(C)C(=O)c1cccc(S(=O)(=O)N2CCCc3ccccc32)c1", "activity change, negative = inhibition": "inactive"}
{"smiles": "COc1cc(CC(=O)Nc2nc(-c3ccccc3)c(C(C)=O)s2)cc(OC)c1OC", "activity change, negative = inhibition": "inconclusive: -8.38%"}
{"smiles": "COc1ccc(-c2cc(C(F)(F)F)nc(N)n2)cc1", "activity change, negative = inhibition": "inconclusive: 3.95%"}
{"smiles": "CCN(Cc1ccccc1)S(=O)(=O)c1ccc(F)c(C(=O)Nc2ccc(C(C)C)cc2)c1", "Potency": "inconclusive: 3.16 µM [falling, partial curve, poor fit]"}
{"smiles": "COc1cc(/C=C/C(=O)OCC(=O)NC2CCS(=O)(=O)C2)ccc1OC(F)F", "note": "(configuration not stated)", "activity change, negative = inhibition": "inactive"}
{"smiles": "CSc1nc(NCc2ccco2)c2ccccc2n1", "activity change, negative = inhibition": "inactive"}
{"smiles": "Cc1ccc2cc(C#N)c(SCC(=O)NNC(=O)Cc3ccccc3)nc2c1", "Potency": "inconclusive: 29.1 µM [falling, single point]"}
{"smiles": "COC(=O)c1[nH]c2cccc(OC)c2c1NC(=O)CN1CCN(c2cccc(OC)c2)C(C)C1", "note": "(configuration not stated)", "activity change, negative = inhibition": "inconclusive: -9.8%"}
{"smiles": "CCOc1ccc(NC(=O)CSc2cn[nH]n2)cc1", "Potency": "inconclusive: 20.6 µM [falling, partial curve]"}
{"smiles": "COc1ccc(C2CC(=O)C=C(NCCC(C)C)C2)cc1", "note": "(configuration not stated)", "activity change, negative = inhibition": "inactive"}
{"smiles": "COc1ccc(Cn2nnc(C(=O)Nc3ccc(F)cc3)c2N)cc1", "activity change, negative = inhibition": "inconclusive: -9.46%"}
{"smiles": "Cc1ccc(S(=O)(=O)N(C)c2ccccc2)cc1", "activity change, negative = inhibition": "inconclusive: 5%"}
{"smiles": "Cc1csc(N/N=C/c2c(F)cccc2Cl)n1", "activity change, negative = inhibition": "inconclusive: -17.8%"}
{"smiles": "COc1nc(N2CCCC2)nc(-n2nnc(C(C)=O)c2C)n1", "Potency": "inconclusive: 5.62 µM [rising, single point]"}
{"smiles": "CCN1CCN(c2ccc(S(=O)(=O)N3CCCCC3)cc2NC(=O)c2ccc([N+](=O)[O-])o2)CC1", "Potency": "inconclusive: 20.6 µM [falling, single point]"}
{"smiles": "CCOC(=O)C1(Cc2ccc(OC)cc2)CCN(C(=O)c2ccc3[nH]ccc3c2)CC1", "activity change, negative = inhibition": "inactive"}
{"smiles": "COc1ccc(CCNC(=O)c2ccc(OCc3c(C)noc3C)cc2)cc1OC", "activity change, negative = inhibition": "inconclusive: -3.59%"}
{"smiles": "Cc1cc(C(=O)CN2C(=O)NC(Cc3c[nH]c4ccccc34)C2=O)c(C)n1C", "note": "(configuration not stated)", "activity change, negative = inhibition": "inconclusive: 10.2%"}
{"smiles": "CO/N=C1\\CCn2c1c(C)c1ccccc12", "activity change, negative = inhibition": "inactive"}
{"smiles": "CCN(CC(=O)NCc1cccs1)C(=O)c1ccc([N+](=O)[O-])o1", "activity change, negative = inhibition": "inconclusive: 6.75%"}
{"smiles": "O=C(CCNc1cc(Cl)cc(Cl)c1)c1ccco1", "activity change, negative = inhibition": "inactive"}
{"smiles": "COc1ccc(C2Nc3ccccc3C(=O)N2Cc2ccccc2)cc1COc1ccc(Cl)cc1Cl", "note": "(configuration not stated)", "Potency": "inconclusive: 20.6 µM [rising, partial curve, poor fit]"}
{"smiles": "Cc1ccc(N(CC(=O)Nc2ccccc2C(=O)NCc2ccco2)S(=O)(=O)c2ccccc2)cc1C", "Potency": "inconclusive: 23.1 µM [rising, partial curve, poor fit]"}
{"smiles": "CCOC(=O)c1c(C)[nH]c(C(=O)OCC(=O)NC(C)C)c1C", "activity change, negative = inhibition": "inconclusive: 2.43%"}
{"smiles": "c1ccn(-c2ccc(N3CCOCC3)cc2)c1", "activity change, negative = inhibition": "inconclusive: -1.29%"}
{"smiles": "CS(=O)(=O)c1ccc2nc(NC(=O)c3ccc(N4C(=O)CCC4=O)cc3)sc2c1", "activity change, negative = inhibition": "inconclusive: 8.95%"}
{"smiles": "COc1c(OC(C)=O)ccc(/C=C/c2ccc3cccc(OCc4ccccc4)c3n2)c1[N+](=O)[O-]", "activity change, negative = inhibition": "inconclusive: 7.04%"}
{"smiles": "Cc1[nH][nH]c(=O)c1C(c1ccc2c(c1)OCO2)c1c(C)[nH][nH]c1=O", "activity change, negative = inhibition": "inconclusive: -16.2%"}
{"smiles": "COc1nc(-c2ccccc2Cl)ccc1C#N", "activity change, negative = inhibition": "inconclusive: 1.16%"}
{"smiles": "COCCn1c(=S)[nH]c2cc(C(=O)N3CCc4ccccc43)ccc2c1=O", "activity change, negative = inhibition": "inconclusive: 25.8%"}
{"smiles": "O=C(CSc1nnnn1-c1ccc(O)cc1)Nc1ccc(N2CCOCC2)c(Cl)c1", "activity change, negative = inhibition": "inconclusive: -11.3%"}
{"smiles": "CCCCCCCCCCNC(=O)C(=O)Nc1ccccn1", "activity change, negative = inhibition": "inconclusive: 5.3%"}
{"smiles": "COc1ccccc1-n1c(CNc2ccc(F)cc2)nnc1SCC(=O)Nc1cc(C)on1", "Potency": "inconclusive: 5.17 µM [falling, partial curve]"}
{"smiles": "CCOC(=O)c1ccc(NC(=O)c2cc3ccccc3o2)cc1", "Potency": "inconclusive: 3.16 µM [falling, partial curve]"}
{"smiles": "CCOc1ccccc1NC(=O)C(c1ccccc1)N1CCN(CC(=O)N2CCCC2)CC1", "note": "(configuration not stated)", "activity change, negative = inhibition": "inconclusive: -0.368%"}
{"smiles": "COc1cccc2cc(C(N)=O)oc12", "activity change, negative = inhibition": "inconclusive: 2.64%"}
{"smiles": "COc1cc(/C=N/Nc2ccccc2C(F)(F)F)ccc1O", "Potency": "inconclusive: 35.5 µM [falling, single point]"}
{"smiles": "CCCC(=O)OC(C(=O)Nc1cc(C(F)(F)F)ccc1Cl)c1ccccc1", "note": "(configuration not stated)", "activity change, negative = inhibition": "inconclusive: 2.38%"}
{"smiles": "CC(C)(C)c1ccc(OC(=O)Nc2ccc(O)c(C(=O)O)c2)cc1", "activity change, negative = inhibition": "inconclusive: 6.99%"}
{"smiles": "Cc1cccc(NC(=O)CSc2nc(=O)n(CCCN3CCOCC3)c3c2CCCC3)c1", "activity change, negative = inhibition": "inactive"}
{"smiles": "CCN(CC)S(=O)(=O)c1ccc(N2CCN(C)CC2)c(NC(=O)COc2ccc(F)cc2Cl)c1", "activity change, negative = inhibition": "inconclusive: -6.73%"}
{"smiles": "Nc1nc2ccccc2n1C(=O)CCc1ccccc1", "activity change, negative = inhibition": "inconclusive: -21.2%"}
{"smiles": "CCn1c(SCC(=O)Nc2ccc(C)cc2)nnc1-c1ccccn1", "activity change, negative = inhibition": "inconclusive: 7.29%"}
{"smiles": "Oc1ccc(CCNc2ncnc3ccc(Cl)cc23)cc1", "activity change, negative = inhibition": "inconclusive: -7.11%"}
{"smiles": "O=C(COc1cccc2ccccc12)N/N=C/c1ccccc1OCc1ccc(C(=O)O)cc1", "Potency": "inconclusive: 2.24 µM [falling, full curve, poor fit]"}
{"smiles": "O=C(CSc1ccc(Cl)cc1)Nc1ccc(N2CCN(c3ccccc3)CC2)c(F)c1", "activity change, negative = inhibition": "inconclusive: -12.7%"}
{"smiles": "C=CCc1ccc(OCCCCN2CC(C)OC(C)C2)c(OC)c1", "note": "(configuration not stated)", "activity change, negative = inhibition": "inconclusive: 24.6%"}
{"smiles": "O=C(/C=C/c1cccc([N+](=O)[O-])c1)NCCSc1ccccc1", "activity change, negative = inhibition": "inconclusive: -3.26%"}
{"smiles": "CCOC(=O)c1sc(=S)n(C)c1NC(=O)c1ccccc1", "activity change, negative = inhibition": "inactive"}
{"smiles": "N#Cc1cc2ccccc2nc1SCC(=O)NC1CC1", "Potency": "inconclusive: 25.1 µM [falling, single point]"}
{"smiles": "CC(NC(=O)CNC(=S)N(Cc1ccccc1)Cc1cccnc1)c1ccccc1", "note": "(configuration not stated)", "activity change, negative = inhibition": "inactive"}
{"smiles": "CCOC(=O)C1=NN(C(=O)Nc2cccc(C(F)(F)F)c2)C2C(=O)N(c3cccc(C(F)(F)F)c3)C(=O)C12", "note": "(configuration not stated)", "activity change, negative = inhibition": "inconclusive: 17.7%"}
{"smiles": "Cc1oc(C(=O)O)cc1COc1ccc2c3c(c(=O)oc2c1C)CCC3", "Potency": "inconclusive: 13 µM [falling, partial curve]"}
{"smiles": "COc1ccc(S(=O)(=O)Nc2cccc(C)c2C)c2cccnc12", "activity change, negative = inhibition": "inactive"}
{"smiles": "O=C(Cc1ccccc1)Nc1nc(-c2ccc(F)c(F)c2)cs1", "activity change, negative = inhibition": "inconclusive: 8.51%"}
{"smiles": "O=C(CCCSc1nc2sc3c(c2c(=O)[nH]1)CCC3)NCCCO", "Potency": "inconclusive: 35.5 µM [rising, single point]"}
{"smiles": "Cc1ccc(C(C)C)c(OCCNC(=O)c2ccccc2O)c1", "activity change, negative = inhibition": "inconclusive: -9.05%"}
{"smiles": "Cc1cc(C(=O)OCC(=O)Nc2ccc(F)c(F)c2)c(C)o1", "Potency": "inconclusive: 14.6 µM [falling, partial curve, poor fit]"}
{"smiles": "CCOC(=O)C1(Cc2cccc(OC)c2)CCCN(C(=O)c2cc(C)oc2C)C1", "note": "(configuration not stated)", "activity change, negative = inhibition": "inactive"}
{"smiles": "COc1ccccc1-c1c(C)oc2c(CN3CCN(CCO)CC3)c(O)ccc2c1=O", "activity change, negative = inhibition": "inactive"}
{"smiles": "C/C(=N\\NC(=O)c1ccccc1F)c1ccc2c(c1)Nc1ccccc1S2", "Potency": "inconclusive: 20.6 µM [falling, single point]"}
{"smiles": "O=C(Cn1cc(-c2nnnn2-c2ccc(Cl)cc2)c(=O)c2ccccc21)c1ccccc1", "activity change, negative = inhibition": "inconclusive: 1.72%"}
{"smiles": "O=C(CSc1nc2ccccc2n1CC(=O)N1CCCC1)N1CCN(C(=O)c2ccco2)CC1", "activity change, negative = inhibition": "inactive"}
{"smiles": "c1ccc(CSc2nnc(-c3ccco3)o2)cc1", "activity change, negative = inhibition": "inconclusive: 11.1%"}
{"smiles": "COc1cccc(C2c3[nH]c4ccccc4c3CCN2C(=O)c2ccccc2F)c1OC", "note": "(configuration not stated)", "activity change, negative = inhibition": "inconclusive: 4.43%"}
{"smiles": "CCNC(=S)N1CCN(C(c2ccccc2)c2ccccc2)CC1", "activity change, negative = inhibition": "inconclusive: 12.1%"}
